Results from doi:10.1101/2023.11.16.567405.
These are yes or no findings as the source states them, for the method shown. In cells and extracts the contact can be indirect. Some binding calls cover weakened binding; strength is not graded here. Tags and fused reporters may be left off the sequences shown.

Experiments:
[1] = molecular target: T1, GFP-MamF fusion protein (Magnetospirillum gryphiswaldense MSR-1) (UniProt Q6NE74); assay: co-IP
T1 sequence: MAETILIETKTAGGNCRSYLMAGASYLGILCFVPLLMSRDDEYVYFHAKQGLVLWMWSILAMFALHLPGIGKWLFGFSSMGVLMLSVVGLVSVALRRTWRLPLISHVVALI

[2] = molecular target: T2, GFP-MmsF fusion protein (Magnetospirillum gryphiswaldense MSR-1) (UniProt A4U547); assay: co-IP
T2 sequence: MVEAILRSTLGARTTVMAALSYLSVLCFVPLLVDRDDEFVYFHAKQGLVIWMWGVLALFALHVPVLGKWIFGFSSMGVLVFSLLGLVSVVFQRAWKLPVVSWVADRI

binding [1]: no binding
binding [2]: binds weakly
B1: MamJ, magnetosome membrane adaptor protein (protein, UniProt V6F519 1-466)
chain: MAKNRRDRGTDLPGDGDQKISTGPEIVSVTVHPSPNLAAAAKPVQGDIWASLLESSPWSANQGGLVETAQPPSAPIRSQDPVPVADLVNRWSQPIWRTAPLAGNAESSEEGVVAPSLTQSDSVLAVSDLVIDVQPETDAEVEVSIEPEPALVEPVIEIEAEAAEVEPEPAPVADLVNRWAQPIWRTAPLAGNAESSEEGVVAPSLTQSDSVLAVSDLVIDVQPEANAEVEVSIEPEPALVEPVIEIEAEAAEVEPEPAPVEPVIEIEAEAAEVEPEPAPVEPVIEIEAEAAEVEPEPAPVEPAIEIEAIRVELEPVLIDEVVELVTEFEYSQAESVASADLIANPAPAESSRLAELLDEAAAIAAPAVAVAVEATRQPNKITASVKKRAPVQEVPVEDLLGGIFGVAGSAVRGVFTIGGGFVDGVVKGGRLVGSNVVAGTRRLAQTIEVSCGSCSSPKCDAEDKNK
